Test results as given in publication PMC9239190.
For at least one entry, the source does not settle the construct or the ends of the probe. Weaker means in comparison with the reference protein, sequence or condition of that experiment. Protein sequences can lack the tags named with them. At least one verdict was read from the data and is not stated in words by the source.

Biological target: T1, AdpA (Streptomyces coelicolor) (UniProt Q9L062)
T1 sequence (looked up, limits assumed): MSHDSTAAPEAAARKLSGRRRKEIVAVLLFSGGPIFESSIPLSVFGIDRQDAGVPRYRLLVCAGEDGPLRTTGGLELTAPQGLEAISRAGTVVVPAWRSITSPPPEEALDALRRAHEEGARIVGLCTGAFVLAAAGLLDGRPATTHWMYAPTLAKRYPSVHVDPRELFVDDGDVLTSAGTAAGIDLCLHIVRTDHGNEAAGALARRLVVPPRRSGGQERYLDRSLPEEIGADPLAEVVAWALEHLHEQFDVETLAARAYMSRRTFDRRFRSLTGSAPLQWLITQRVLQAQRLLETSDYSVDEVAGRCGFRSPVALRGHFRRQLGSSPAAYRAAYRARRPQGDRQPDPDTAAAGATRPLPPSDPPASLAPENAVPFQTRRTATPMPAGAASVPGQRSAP
Experiment: EMSA
Conditions: EMSA: 20 mM Tris-HCl, 2 mM EDTA, 20 mM KCl, 0.5 mM DTT, pH 8.0, 30 C 20 min, 16.5-22 nM probe, recombinant protein, protein details: His tag (pET15b, text says C-terminal), probe letters rebuilt from the primers and the genome

| Sequence | binding result (200 uM HSnH) | binding result (200 uM S8) | binding result (HSnH 100-200 uM) | binding result (S8 100-200 uM) | binding result (no sulfur compound) | binding result (1 mM HSnH) | binding result (1 mM S8) |
| --- | --- | --- | --- | --- | --- | --- | --- |
| ACACATCCCGCATCGGTGATTACATGGACACGTCCCAATAAGTTGAATCTCATCTGCGCCCCCGTCGAGATTCTCCGTCTCCTGGGGGCGACAATAACAGGCCTACTCAACAGATTTCAATGTGCTTGCCGTCACAAGCGATCTCCTATTGATCAAAAATTAATCAGTGCAGCGAGCTGCACTGATTAATTTTTGCTGGATTTTACCGAGAGGCAGTGGTCGAGGCTTCCGAATCAATAGAATCTGGCATTCCTGATACGGCTGGGTCC (double strand) [PactII-4 probe] | binds more weakly | binds more weakly | – | – | – | – | – |
| CTCATACTGCTAAGCCCCCCTCGGTGGTCGCGGCGCCCTTCACCCTTCGGGTCTGTCGCTCCAACACGTTTCCCCTCGGTCCTGCACGAGTCCCCCGCCGTAGACGGTCAAGATCGAATCTACTGTGTCCCGCCGCGCCGAGGTGGCCGGTTCGGCACTTGGGACATTGTCGACATGGCAACTTGGCGTGAAGCAGTCGATCACGAAGCGTTGCACTCCCGGGCGCCCCTGGGAAGTACGCCTTGTGTCAGTGGCCAATCCCCGTAGGGTGCGAGGGGGGCCCGAGACCCTGTCCGTGCAGGTGGAACGGGGGTTTGGGGGTGGTGAGGGGCATGGATGAGCCACGTGCGGAAGTTGGCTGAAAAGAAGCGGAA (double strand) [PadpA probe] | – | – | binds more weakly | binds more weakly | binds | – | – |
| GCACTCCAGTCGGTTACCCAGCCCATACCGGCGCCGTCCTCTCCCGAATCGAGGCTCCCCCACGGCGGCAGCGGCATATTCACCGCCGCCAGTTGAGGACGTTACGGAAGGTGGGCACAGCGCAACACCCCCTTCGGGCCCAATCTTGAATGGCCCGAACGGACTATGGGTAAGCGGCAGATCACCCGGGGGAGTGAGCTGGCGACATGCGCGACGATCCCGACATTCAGGTCATCTCTGTTGCGCCACAACGGACACCGATTGACACACGAGGCGGATTCGGA (double strand) [PwblA probe] | binds more weakly | binds more weakly | – | – | – | binds more weakly | binds more weakly |
